Values from PubChem BioAssay AID1224830 (NIAID, 2016)
Test: 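Genes whose knock-down alters the TNF-alpha reporter response to LPS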 (primary screen). System: human THP-1 monocytic leukaemia cells, TNF dual-luciferase reporter clone, PMA-differentiated to macrophage-like cells. Knock-down reagent: siRNA pool against human genes, 50 nM. Time to read-out: LPS for 4 h, given about 3 days after siRNA transfection. Treatment: bacterial LPS (TLR4 ligand), 10 ng/ml. Read-out: 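Ratio of firefly to renilla light, scaled to the plate median and expressed as a robust z-score per replicate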. Reading the numbers: TNF reporter robust z-score: higher = stronger TNF reporter response to LPS. Active means: 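Each well counts as active if its z-score is over 2.8 or under -1.5; controls are left without a call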.
The deposit covers about 18,000 reagents; shown is a part drawn at random. Over the whole deposit, about 2,900 (16%) are marked active. 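Calls are made per well; low scores hint the gene aids the LPS response, high scores that it dampens it.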 Repeated entries: four replicate wells of each siRNA pool. Reagent sequences are not shown.

gene symbol	TNF reporter robust z-score	Call
NRN1L (neuritin 1 like)	-1.2	inactive
NRN1L (neuritin 1 like)	-0.17	inactive
NRN1L (neuritin 1 like)	0.31	inactive
NRN1L (neuritin 1 like)	0.9	inactive
KLHL7 (kelch like family member 7)	1.11	inactive
KLHL7 (kelch like family member 7)	0.75	inactive
KLHL7 (kelch like family member 7)	0.42	inactive
KLHL7 (kelch like family member 7)	0.18	inactive
FHIP1B (FHF complex subunit HOOK interacting protein 1B)	1.43	inactive
FHIP1B (FHF complex subunit HOOK interacting protein 1B)	-0.14	inactive
FHIP1B (FHF complex subunit HOOK interacting protein 1B)	0.59	inactive
FHIP1B (FHF complex subunit HOOK interacting protein 1B)	-0.01	inactive
SPICE1 (spindle and centriole associated protein 1)	-2.07	active
SPICE1 (spindle and centriole associated protein 1)	-1.92	active
SPICE1 (spindle and centriole associated protein 1)	-1.82	active
SPICE1 (spindle and centriole associated protein 1)	-1.79	active
SLC10A3	-0.55	inactive
SLC10A3	-0.81	inactive
SLC10A3	-1.25	inactive
SLC10A3	-1.59	active
C2CD2L (C2CD2 like)	2.58	inactive
C2CD2L (C2CD2 like)	2.17	inactive
C2CD2L (C2CD2 like)	3.47	active
C2CD2L (C2CD2 like)	2.62	inactive
PRDM4 (PR/SET domain 4)	0.49	inactive
PRDM4 (PR/SET domain 4)	1.39	inactive
PRDM4 (PR/SET domain 4)	0.13	inactive
PRDM4 (PR/SET domain 4)	0.8	inactive
HNF1A (HNF1 homeobox A)	0.11	inactive
HNF1A (HNF1 homeobox A)	0.6	inactive
HNF1A (HNF1 homeobox A)	0.12	inactive
HNF1A (HNF1 homeobox A)	0.76	inactive
PTGER4 (prostaglandin E receptor 4)	0.44	inactive
PTGER4 (prostaglandin E receptor 4)	0.89	inactive
PTGER4 (prostaglandin E receptor 4)	1.44	inactive
PTGER4 (prostaglandin E receptor 4)	0.01	inactive
PKIA (cAMP-dependent protein kinase inhibitor alpha)	-0.26	inactive
PKIA (cAMP-dependent protein kinase inhibitor alpha)	-0.84	inactive
PKIA (cAMP-dependent protein kinase inhibitor alpha)	-0.92	inactive
PKIA (cAMP-dependent protein kinase inhibitor alpha)	0.12	inactive
CHPT1 (choline phosphotransferase 1)	1.35	inactive
CHPT1 (choline phosphotransferase 1)	-0.9	inactive
CHPT1 (choline phosphotransferase 1)	-0.73	inactive
CHPT1 (choline phosphotransferase 1)	-0.21	inactive
ATIC	1.41	inactive
ATIC	1.99	inactive
ATIC	1.07	inactive
ATIC	1.81	inactive
PPP1R7 (protein phosphatase 1 regulatory subunit 7)	-0.13	inactive
PPP1R7 (protein phosphatase 1 regulatory subunit 7)	0.58	inactive
PPP1R7 (protein phosphatase 1 regulatory subunit 7)	-0.53	inactive
PPP1R7 (protein phosphatase 1 regulatory subunit 7)	1.39	inactive
CARINH	0.23	inactive
CARINH	0.38	inactive
CARINH	0.35	inactive
CARINH	0.07	inactive
FTHL17 (ferritin heavy chain like 17)	0.19	inactive
FTHL17 (ferritin heavy chain like 17)	0.04	inactive
FTHL17 (ferritin heavy chain like 17)	-0.33	inactive
FTHL17 (ferritin heavy chain like 17)	0.81	inactive
CENPL (centromere protein L)	0.14	inactive
CENPL (centromere protein L)	-0.28	inactive
CENPL (centromere protein L)	0.06	inactive
CENPL (centromere protein L)	-0.51	inactive
NUDT11 (nudix hydrolase 11)	1	inactive
NUDT11 (nudix hydrolase 11)	-1.11	inactive
NUDT11 (nudix hydrolase 11)	0.92	inactive
NUDT11 (nudix hydrolase 11)	-1.57	active
SF3A1 (splicing factor 3a subunit 1)	2.44	inactive
SF3A1 (splicing factor 3a subunit 1)	-0.11	inactive
SF3A1 (splicing factor 3a subunit 1)	0.09	inactive
SF3A1 (splicing factor 3a subunit 1)	-0.93	inactive
PC (pyruvate carboxylase)	-0.73	inactive
PC (pyruvate carboxylase)	-0.71	inactive
PC (pyruvate carboxylase)	-1.61	active
PC (pyruvate carboxylase)	-1.72	active
ECEL1 (endothelin converting enzyme like 1)	0.37	inactive
ECEL1 (endothelin converting enzyme like 1)	-0.74	inactive
ECEL1 (endothelin converting enzyme like 1)	-1.43	inactive
ECEL1 (endothelin converting enzyme like 1)	1.18	inactive
SYNDIG1 (synapse differentiation inducing 1)	-0.89	inactive
SYNDIG1 (synapse differentiation inducing 1)	-1.72	active
SYNDIG1 (synapse differentiation inducing 1)	-1.51	active
SYNDIG1 (synapse differentiation inducing 1)	-1.47	inactive
TRPA1	-0.53	inactive
TRPA1	-0.28	inactive
TRPA1	0.09	inactive
TRPA1	-0.1	inactive
POU2F3 (POU class 2 homeobox 3)	-0.08	inactive
POU2F3 (POU class 2 homeobox 3)	-0.1	inactive
POU2F3 (POU class 2 homeobox 3)	0.54	inactive
POU2F3 (POU class 2 homeobox 3)	0.43	inactive
GOLT1B (golgi transport 1B)	0.56	inactive
GOLT1B (golgi transport 1B)	1.27	inactive
GOLT1B (golgi transport 1B)	0.19	inactive
GOLT1B (golgi transport 1B)	0.93	inactive
ALPG (alkaline phosphatase, germ cell)	0.58	inactive
ALPG (alkaline phosphatase, germ cell)	0.73	inactive
ALPG (alkaline phosphatase, germ cell)	0.78	inactive
ALPG (alkaline phosphatase, germ cell)	-0.3	inactive
SLAMF1 (signaling lymphocytic activation molecule family member 1)	-0.41	inactive
SLAMF1 (signaling lymphocytic activation molecule family member 1)	0.13	inactive
SLAMF1 (signaling lymphocytic activation molecule family member 1)	1.65	inactive
SLAMF1 (signaling lymphocytic activation molecule family member 1)	1.08	inactive
ATF4 (activating transcription factor 4)	1.51	inactive
ATF4 (activating transcription factor 4)	3.22	active
ATF4 (activating transcription factor 4)	-0.05	inactive
ATF4 (activating transcription factor 4)	1.83	inactive
SP5 (Sp5 transcription factor)	-1.1	inactive
SP5 (Sp5 transcription factor)	-1.11	inactive
SP5 (Sp5 transcription factor)	0.25	inactive
SP5 (Sp5 transcription factor)	-0.48	inactive
